Data published in the supplement of paper PMC10338343.
± gives the standard deviation. The list shows a part of the results. The uncertainty is large for many entries.

tested on: EfPiwi piRISC loaded with L1MC piRNA (26 nt); assay: pre-steady-state target cleavage rate (min^-1); guide: L1MC piRNA 5'p-UAACUAAAUACUAUGCAAGCUGUAGG; MIWI and MILI are mouse PIWI proteins and EfPiwi is from a freshwater sponge; tags in brackets are library labels; higher = faster piRNA-guided slicing of the target; settings: auxiliary factor: none (no Gtsf1)
In short: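 The pre-steady-state cleavage rate was obtained by Cleave-'n-Seq with a burst-and-steady-state fit. A transcribed, DNA-blocked target RNA library (0.1 nM) was mixed with 1 nM active affinity-purified piRISC carrying one synthetic guide, with or without 500 nM GTSF1 partner protein, in HEPES–potassium acetate buffer at 33 °C for 0–8 or 0–960 min. Uncleaved targets were sequenced and normalised to depth and to weakly complementary targets, with three trials pooled and k3 capped at 0.0001 min^-1.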

Sequence	pre-steady-state target cleavage rate
UCCUGGAUGUGCUUGCAAUAGUAUUUAGUUA	0.00104 ± 0.0095
UCCUGGAUGUCGAAGCAUAGUCAUUUAGUUA	0.000224 ± 0.028
UCCUGGAUGAGCUUGCACUAGUAUUUAGUUA	0.000496 ± 0.017
UCCUGGAUGACGCUUGCAUAGUAUUUAGUUA	0.000728 ± 0.02
UCCUGGAUGUGCUUGCAUAGUAUAAAGAAA	0.000432 ± 0.019
UCCUGGAUGAGCUUGCUUAGAAUUUAGUUA	0.000446 ± 0.016
UCCUGGAUCAGCUUGCAUAGUUUUAGUUA	0.000118 ± 0.031
UCCUGGAUGUGGUUGCUUAGUAUUUAGUUA	0.000484 ± 0.03
UCCUGGAUGAGCUUGCAUAGUAAAAACAAA	0.000168 ± 0.048
UCCUGGAUCAGCUUGCAUAGUAUUAUGUAA	0.000317 ± 0.029
UCCUGGAUGUGCUUGCAUACUUUUUAGUUA	0.000128 ± 0.061
UCCUGGAUGUCGUUGCAUAGUUUUAGUUA	< 0.0001
UCCUGGAUGAGGUUGCAUAGUAUUUACAAA	0.000676 ± 0.015
UCCUGGAUGUCGUUGCAUAGUUUUUAGUUA	0.000184 ± 0.05
UCCUGGAUGUCGUUGCUAUAGUAUUUAGUUA	0.000242 ± 0.032
UCCUGGAUGUCCUUGCAUAGUAUUUUCUAA	0.000194 ± 0.039
UCCUGGAUGUCGUUGCGUAGUAUUUAGUUA	0.000348 ± 0.026
UCCUGGAUGUCCUUGCAUAGAUUUAGUUA	0.000338 ± 0.015
UCCUGGAUGUGCUUGCUAUGUAUUUAGUAA	0.000154 ± 0.054
UCCUGGAACAGGUUGCAUAGUUUUUAGUUA	0.00148 ± 0.0075

Sequence	pre-steady-state target cleavage rate
UCCUGGAUGAGCUUGCAUACAAUUUAGUUA	0.000118 ± 0.06
UCCUGGAUGUCGAACCAUAGUAUUUAGUUA	0.00024 ± 0.015
UCCUGGAUGUCGAAGCCUAGUAUUUAGUUA	0.000256 ± 0.017
UCCUGGAUCAGCUUGCAUACAUUUUAGUUA	0.000161 ± 0.044
UCCUGGAACAGCUACGAUAGUAUUUACAAA	0.000108 ± 0.059
UCCUCCUACAGCUUGCAAAGUUUUUAGUUA	0.000546 ± 0.011
UCCUGGAUGUGGUUGCAUACUAUUUAGUUA	0.000321 ± 0.044
UCCUGGAUGUCGAAGCAUAGUUUUUAGUUA	< 0.0001
UCCUGGAUGUCGAACCAUUGAAUUUAGUUA	0.000237 ± 0.023
UCCUGCUACAGCUUGGUAAGUAUUUAGAAA	< 0.0001
UCCUGGAUCAGCUUGCAUAGUUUUUUCAAA	0.000463 ± 0.014
UCCUGGAUGAGCUUGCAUAGAUAUUAGUUA	0.000489 ± 0.016
UCCUGGAUGAGCUUGCAUAAGUAUUUAGUUA	0.00103 ± 0.009
UCCUGGAUGAGCUUGCAUAGUAAAAAGAAA	0.000634 ± 0.016
UCCUGGAUGUCGAUGCAAUAGUAUUUAGUUA	0.000113 ± 0.026
UCCUGGAUGUGCUUGCAUAGUUUUAGUUA	0.000283 ± 0.032
UCCUGGAUGAGCUACCAUAGUAUUUAGUAA	0.000716 ± 0.0093
UCCUGGUUACAGCUUGCAUAGUAUUUAGUUA	0.00968 ± 0.0057
UCCUGGAUGUCCUUGCAUAGUUUUAAGUUA	0.000362 ± 0.02
UCCUGGAUGUGCUUGCAUAGAUUUAGUUA	0.000721 ± 0.012

In a second layout: entries from further up
UCCUGGAUGUGCUUGCAAUAGUAUUUAGUUA
  pre-steady-state target cleavage rate = 0.00104 ± 0.0095
UCCUGGAUGUCGAAGCAUAGUCAUUUAGUUA
  pre-steady-state target cleavage rate = 0.000224 ± 0.028
UCCUGGAUGAGCUUGCACUAGUAUUUAGUUA
  pre-steady-state target cleavage rate = 0.000496 ± 0.017
